Measurements published in PMC12597689.
Results are given in words; binding and its absence hold for the method and conditions named. In cells and extracts the contact can be indirect. These calls come from enrichment with a bait or labelling near it, and not all partners need be listed.

By UniProt entry, the sequences of proteins in these tests, tags left out.
UniProt Q13148: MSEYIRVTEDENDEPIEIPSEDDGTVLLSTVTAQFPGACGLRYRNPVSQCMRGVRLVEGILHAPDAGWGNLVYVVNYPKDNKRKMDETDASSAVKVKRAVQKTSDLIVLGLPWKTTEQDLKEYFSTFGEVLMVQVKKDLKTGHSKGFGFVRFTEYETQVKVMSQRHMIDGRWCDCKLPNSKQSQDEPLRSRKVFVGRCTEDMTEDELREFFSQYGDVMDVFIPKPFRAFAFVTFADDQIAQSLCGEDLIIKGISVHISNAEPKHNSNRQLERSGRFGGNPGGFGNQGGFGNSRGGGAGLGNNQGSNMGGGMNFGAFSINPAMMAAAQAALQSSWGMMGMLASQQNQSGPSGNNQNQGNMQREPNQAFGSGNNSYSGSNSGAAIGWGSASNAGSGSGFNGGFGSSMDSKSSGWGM
UniProt Q12756: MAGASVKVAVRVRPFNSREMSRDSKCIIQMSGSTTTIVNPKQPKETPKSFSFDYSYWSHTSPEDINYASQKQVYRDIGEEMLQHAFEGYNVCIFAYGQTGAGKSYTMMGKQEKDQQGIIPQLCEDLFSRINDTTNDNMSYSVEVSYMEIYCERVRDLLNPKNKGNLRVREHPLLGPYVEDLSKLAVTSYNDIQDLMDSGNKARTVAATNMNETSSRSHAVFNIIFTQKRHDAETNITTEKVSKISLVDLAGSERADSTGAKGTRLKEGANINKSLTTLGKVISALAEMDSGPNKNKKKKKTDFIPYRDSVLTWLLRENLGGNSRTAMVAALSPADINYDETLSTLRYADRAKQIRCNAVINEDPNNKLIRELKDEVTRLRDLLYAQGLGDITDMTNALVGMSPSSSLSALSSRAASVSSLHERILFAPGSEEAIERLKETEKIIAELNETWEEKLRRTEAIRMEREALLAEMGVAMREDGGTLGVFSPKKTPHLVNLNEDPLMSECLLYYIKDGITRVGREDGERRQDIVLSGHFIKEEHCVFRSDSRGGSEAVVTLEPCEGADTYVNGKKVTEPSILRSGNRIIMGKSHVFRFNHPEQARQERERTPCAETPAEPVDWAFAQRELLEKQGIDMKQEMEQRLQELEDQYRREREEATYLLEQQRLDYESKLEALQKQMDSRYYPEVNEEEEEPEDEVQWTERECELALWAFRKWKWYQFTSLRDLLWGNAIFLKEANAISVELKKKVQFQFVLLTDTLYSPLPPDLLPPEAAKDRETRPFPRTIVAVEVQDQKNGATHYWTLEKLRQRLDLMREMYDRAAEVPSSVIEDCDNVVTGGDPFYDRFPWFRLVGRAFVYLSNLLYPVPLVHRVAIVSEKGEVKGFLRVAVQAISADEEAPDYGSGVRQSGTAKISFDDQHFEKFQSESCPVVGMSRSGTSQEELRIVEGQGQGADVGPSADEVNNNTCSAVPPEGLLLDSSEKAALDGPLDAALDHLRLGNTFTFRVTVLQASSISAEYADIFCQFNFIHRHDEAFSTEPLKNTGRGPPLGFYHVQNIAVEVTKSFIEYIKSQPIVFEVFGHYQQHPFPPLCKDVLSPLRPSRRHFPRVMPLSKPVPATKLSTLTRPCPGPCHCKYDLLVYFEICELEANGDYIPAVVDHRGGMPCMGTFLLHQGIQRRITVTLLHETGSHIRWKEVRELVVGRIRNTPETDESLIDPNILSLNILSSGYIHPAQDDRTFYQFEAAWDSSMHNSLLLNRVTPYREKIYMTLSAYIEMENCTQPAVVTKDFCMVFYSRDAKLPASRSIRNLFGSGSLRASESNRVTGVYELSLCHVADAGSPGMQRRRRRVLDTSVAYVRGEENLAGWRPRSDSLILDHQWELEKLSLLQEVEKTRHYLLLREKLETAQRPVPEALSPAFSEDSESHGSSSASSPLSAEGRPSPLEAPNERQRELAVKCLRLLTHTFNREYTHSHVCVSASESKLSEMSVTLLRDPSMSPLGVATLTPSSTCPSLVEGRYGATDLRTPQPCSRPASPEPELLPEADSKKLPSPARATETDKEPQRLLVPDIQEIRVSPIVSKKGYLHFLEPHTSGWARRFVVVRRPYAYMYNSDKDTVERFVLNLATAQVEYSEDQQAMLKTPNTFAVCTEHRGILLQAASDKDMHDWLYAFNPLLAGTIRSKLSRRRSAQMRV
UniProt Q7Z4S6: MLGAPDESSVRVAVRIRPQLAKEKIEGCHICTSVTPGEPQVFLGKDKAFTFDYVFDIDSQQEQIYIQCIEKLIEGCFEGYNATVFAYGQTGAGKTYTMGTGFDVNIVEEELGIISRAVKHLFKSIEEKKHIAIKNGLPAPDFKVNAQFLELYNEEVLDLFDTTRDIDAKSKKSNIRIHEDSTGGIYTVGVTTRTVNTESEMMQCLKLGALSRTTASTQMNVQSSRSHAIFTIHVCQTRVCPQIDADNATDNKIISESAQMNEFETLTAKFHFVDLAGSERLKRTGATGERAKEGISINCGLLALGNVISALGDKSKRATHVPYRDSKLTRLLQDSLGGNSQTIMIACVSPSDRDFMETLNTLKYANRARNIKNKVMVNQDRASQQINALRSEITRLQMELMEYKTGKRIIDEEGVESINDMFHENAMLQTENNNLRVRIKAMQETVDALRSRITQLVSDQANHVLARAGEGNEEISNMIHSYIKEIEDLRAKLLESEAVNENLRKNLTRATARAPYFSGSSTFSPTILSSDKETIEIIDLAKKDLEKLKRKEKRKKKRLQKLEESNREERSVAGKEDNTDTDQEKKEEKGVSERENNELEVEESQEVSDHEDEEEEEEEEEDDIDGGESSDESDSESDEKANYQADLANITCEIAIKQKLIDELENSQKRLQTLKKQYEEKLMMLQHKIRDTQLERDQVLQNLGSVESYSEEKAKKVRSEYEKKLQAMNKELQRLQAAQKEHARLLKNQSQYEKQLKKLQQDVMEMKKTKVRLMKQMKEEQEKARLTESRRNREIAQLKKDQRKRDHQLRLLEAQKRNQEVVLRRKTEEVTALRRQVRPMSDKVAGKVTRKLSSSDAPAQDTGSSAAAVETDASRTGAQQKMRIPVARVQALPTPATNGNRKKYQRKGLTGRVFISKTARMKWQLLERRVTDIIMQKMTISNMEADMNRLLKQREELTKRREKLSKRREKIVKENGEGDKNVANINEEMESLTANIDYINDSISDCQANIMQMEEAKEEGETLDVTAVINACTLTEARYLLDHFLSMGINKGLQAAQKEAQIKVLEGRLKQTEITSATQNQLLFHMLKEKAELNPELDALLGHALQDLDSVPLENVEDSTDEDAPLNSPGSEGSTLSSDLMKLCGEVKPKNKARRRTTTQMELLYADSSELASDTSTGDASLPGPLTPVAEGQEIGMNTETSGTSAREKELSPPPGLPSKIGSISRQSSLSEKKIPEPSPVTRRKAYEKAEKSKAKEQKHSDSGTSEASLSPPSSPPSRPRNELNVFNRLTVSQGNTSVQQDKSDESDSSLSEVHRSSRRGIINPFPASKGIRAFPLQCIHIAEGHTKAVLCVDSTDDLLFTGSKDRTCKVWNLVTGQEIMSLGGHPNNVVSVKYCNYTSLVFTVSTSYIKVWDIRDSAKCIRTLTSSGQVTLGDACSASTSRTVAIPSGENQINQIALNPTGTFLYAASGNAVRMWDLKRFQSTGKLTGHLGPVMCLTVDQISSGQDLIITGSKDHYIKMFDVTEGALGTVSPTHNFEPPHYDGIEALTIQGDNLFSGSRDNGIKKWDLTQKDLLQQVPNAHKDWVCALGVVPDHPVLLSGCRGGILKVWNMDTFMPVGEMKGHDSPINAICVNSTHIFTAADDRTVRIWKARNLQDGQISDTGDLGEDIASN
UniProt O75037: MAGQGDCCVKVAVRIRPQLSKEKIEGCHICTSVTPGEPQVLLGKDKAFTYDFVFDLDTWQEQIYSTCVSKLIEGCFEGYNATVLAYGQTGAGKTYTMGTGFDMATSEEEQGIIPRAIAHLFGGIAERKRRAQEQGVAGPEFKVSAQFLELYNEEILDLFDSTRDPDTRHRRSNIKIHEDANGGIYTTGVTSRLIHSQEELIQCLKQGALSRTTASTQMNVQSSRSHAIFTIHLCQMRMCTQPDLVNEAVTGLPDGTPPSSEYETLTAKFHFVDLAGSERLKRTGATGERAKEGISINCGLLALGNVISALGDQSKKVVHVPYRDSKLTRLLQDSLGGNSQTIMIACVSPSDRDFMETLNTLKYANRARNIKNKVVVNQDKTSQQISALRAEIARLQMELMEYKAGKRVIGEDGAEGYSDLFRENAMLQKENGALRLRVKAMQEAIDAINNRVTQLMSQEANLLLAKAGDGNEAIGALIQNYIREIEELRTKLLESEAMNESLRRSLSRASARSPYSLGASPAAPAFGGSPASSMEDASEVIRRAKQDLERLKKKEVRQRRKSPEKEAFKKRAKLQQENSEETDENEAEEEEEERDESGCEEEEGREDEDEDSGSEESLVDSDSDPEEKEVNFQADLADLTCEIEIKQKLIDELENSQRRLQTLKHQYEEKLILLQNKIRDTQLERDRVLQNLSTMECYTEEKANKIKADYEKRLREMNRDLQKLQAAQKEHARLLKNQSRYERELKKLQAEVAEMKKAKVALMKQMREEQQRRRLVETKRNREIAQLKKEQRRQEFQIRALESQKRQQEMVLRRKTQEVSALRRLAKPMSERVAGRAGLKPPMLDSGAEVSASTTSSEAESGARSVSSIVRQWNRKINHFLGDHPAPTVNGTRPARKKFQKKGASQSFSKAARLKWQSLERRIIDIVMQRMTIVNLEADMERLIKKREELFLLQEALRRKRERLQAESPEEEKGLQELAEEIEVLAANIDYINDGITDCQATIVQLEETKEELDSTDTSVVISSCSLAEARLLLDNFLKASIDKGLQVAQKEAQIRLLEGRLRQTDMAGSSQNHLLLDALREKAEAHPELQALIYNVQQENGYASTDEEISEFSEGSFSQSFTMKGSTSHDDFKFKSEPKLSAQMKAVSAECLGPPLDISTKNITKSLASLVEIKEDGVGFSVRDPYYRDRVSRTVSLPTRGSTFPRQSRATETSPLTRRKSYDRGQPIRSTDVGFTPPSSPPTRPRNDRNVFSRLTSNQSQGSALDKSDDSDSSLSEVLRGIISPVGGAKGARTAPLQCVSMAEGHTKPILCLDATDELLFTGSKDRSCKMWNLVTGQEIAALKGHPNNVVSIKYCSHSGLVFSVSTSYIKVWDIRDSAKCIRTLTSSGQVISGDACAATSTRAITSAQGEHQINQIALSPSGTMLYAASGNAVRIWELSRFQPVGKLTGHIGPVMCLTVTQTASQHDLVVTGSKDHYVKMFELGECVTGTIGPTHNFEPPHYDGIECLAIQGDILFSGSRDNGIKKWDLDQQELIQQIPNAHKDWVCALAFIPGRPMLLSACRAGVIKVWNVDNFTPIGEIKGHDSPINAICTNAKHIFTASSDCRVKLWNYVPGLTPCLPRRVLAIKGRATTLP
UniProt P50995: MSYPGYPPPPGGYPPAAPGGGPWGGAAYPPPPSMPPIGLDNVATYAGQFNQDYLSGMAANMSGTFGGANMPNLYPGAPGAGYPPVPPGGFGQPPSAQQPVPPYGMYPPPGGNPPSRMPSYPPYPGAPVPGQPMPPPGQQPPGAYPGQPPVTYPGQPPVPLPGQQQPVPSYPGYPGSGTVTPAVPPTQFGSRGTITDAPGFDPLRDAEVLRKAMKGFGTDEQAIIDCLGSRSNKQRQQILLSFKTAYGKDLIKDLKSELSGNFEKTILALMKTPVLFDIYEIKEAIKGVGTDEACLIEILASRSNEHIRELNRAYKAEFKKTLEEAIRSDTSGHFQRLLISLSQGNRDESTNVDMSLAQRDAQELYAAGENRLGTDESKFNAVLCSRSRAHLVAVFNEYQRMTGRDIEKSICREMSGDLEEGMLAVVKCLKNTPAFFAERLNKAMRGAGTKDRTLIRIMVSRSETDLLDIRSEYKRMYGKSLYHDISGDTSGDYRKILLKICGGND
UniProt Q07866: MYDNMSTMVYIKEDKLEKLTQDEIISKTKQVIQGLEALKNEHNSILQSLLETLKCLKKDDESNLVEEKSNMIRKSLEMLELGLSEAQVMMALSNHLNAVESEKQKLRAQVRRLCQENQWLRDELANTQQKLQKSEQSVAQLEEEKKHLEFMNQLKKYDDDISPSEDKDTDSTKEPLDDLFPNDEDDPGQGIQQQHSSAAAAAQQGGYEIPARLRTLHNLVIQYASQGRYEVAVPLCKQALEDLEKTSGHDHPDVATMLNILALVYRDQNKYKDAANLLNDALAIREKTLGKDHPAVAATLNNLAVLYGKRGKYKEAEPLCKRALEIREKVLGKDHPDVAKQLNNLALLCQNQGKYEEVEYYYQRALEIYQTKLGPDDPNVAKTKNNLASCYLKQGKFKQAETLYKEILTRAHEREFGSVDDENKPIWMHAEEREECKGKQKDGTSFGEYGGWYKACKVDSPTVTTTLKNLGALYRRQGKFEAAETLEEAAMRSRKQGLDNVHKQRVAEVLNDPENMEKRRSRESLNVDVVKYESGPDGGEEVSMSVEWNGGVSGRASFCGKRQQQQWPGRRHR

Legend:
[1] = target: transactive response DNA binding protein 43 kDa (human (endogenous in iPSC-derived motor neurons)) (UniProt Q13148); experiment: affinity purification with mass spectrometry; anti-TDP-43 (N-terminal) antibody coupled to M-270 epoxy beads; about 1 mg protein of iPSC-neuron lysate (control and KIF1A mutant neurons), 12 to 16 hours at 4°C; eluate analysed by LC-MS/MS
[2] = target: kinesin-like protein KIF1A, wild type (human (endogenous in iPSC-derived motor neurons)) (UniProt Q12756); experiment: affinity purification with mass spectrometry; anti-KIF1A antibody coupled to M-270 epoxy beads; about 1 mg protein of iPSC-neuron lysate (control and KIF1A mutant neurons), 12 to 16 hours at 4°C; eluate analysed by LC-MS/MS

| binding [1] | binding [2] | Substance |
| --- | --- | --- |
| binds | – | ANXA5 (from UniProt P08758 1-320) |
| binds | – | KIF21A (from UniProt Q7Z4S6 1-1674) |
| binds | – | KIF21B (from UniProt O75037 1-1637) |
| binds | – | annexin-11 (from UniProt P50995 1-505) |
| – | binds | kinesin light chain protein 1 (from UniProt Q07866 1-573) |
| binds | binds | kinesin light chain protein 2 (from UniProt Q9H0B6 1-622) |
| binds | binds | kinesin light chain protein 4 (from UniProt Q9NSK0 1-619) |
